The results in this text go back to patent publication US20120065170A1, “Antimicrobial Cyclocarbonyl Heterocyclic Compounds For Treatment Of Bacterial Infections” (priority 2010, published 2012).

This series concerns reticulocytes. In words: 5-days mouse sub-acute toxicity test (myelosuppression, reticulocyte count). Format: in vivo. Conditions: for ratio of reticulocyte count (Table 5) divided by MIC90 against S. aureus (Table 1): toxicity versus activity balance. The protocol: The potential of representative compounds of this invention for myelosuppression has been evaluated in a 5-days mouse sub-acute toxicity test. For comparison purposes, Reference Compound 14 (Example 143 of publication US 2003/0166620) and Reference Compound 15 (TR-700 or torezolid; publications PCT WO2005/058886 and PCT WO2010/042887) have been included. The compounds were dosed to mice at 37.5 mg/kg/day on a twice-daily schedule. On day 5, blood was harvested for hematology testing. The toxicity was evaluated based on the reduction in the number of reticulocytes, previously described as the key marker for myelosuppression signs in pre-clinical testing of oxazolidinones, including linezolid. Thus, a higher degree of a reduction in the reticulocyte count is indicative of an elevated toxicity, while a lower drop in the reticulocyte count indicates a reduced propensity to the myelosuppression effect on the blood cells.

Structures are written as SMILES.

Turning to `O=C1O[C@@H](CO)CN1c1ccc(-c2ccc(N3CCOC3=O)nc2)c(F)c1` [Example 1], the “ratio of reticulocyte count (Table 5) divided by MIC90 against S. aureus (Table 1)” value is 1020. The “fold difference of reticulocyte count/MIC90 ratio over Reference Compound 15” value (Example 1 versus Reference Compound 15) was around 13 fold.
For the compound `Cn1nnc(-c2ccc(-c3ccc(N4C[C@H](CO)OC4=O)cc3F)cn2)n1` [Ref. Cpd. 15, (5R)-3-[3-fluoro-4-[6-(2-methyltetrazol-5-yl)-3-pyridyl]phenyl]-5-(hydroxymethyl)oxazolidin-2-one], the “ratio of reticulocyte count (Table 5) divided by MIC90 against S. aureus (Table 1)” value is 76.4.
